These are yes or no findings as the source states them, for the method shown. Sequences can lack the tags named with a protein.
Target: T1, 6His-GST-URT1 (Arabidopsis thaliana, UniProt O64642 1-764)
T1 construct: URT1, Arabidopsis thaliana, AT2G45620, 764 amino acids; amplified from cDNA; Plasmids in Supplementary Data 7; expression and purification in Supplementary Methods; source: E. coli BL21 DE3, purified; not shown: 6His, N-terminal, kept; GST, N-terminal, kept
T1 sequence (looked up): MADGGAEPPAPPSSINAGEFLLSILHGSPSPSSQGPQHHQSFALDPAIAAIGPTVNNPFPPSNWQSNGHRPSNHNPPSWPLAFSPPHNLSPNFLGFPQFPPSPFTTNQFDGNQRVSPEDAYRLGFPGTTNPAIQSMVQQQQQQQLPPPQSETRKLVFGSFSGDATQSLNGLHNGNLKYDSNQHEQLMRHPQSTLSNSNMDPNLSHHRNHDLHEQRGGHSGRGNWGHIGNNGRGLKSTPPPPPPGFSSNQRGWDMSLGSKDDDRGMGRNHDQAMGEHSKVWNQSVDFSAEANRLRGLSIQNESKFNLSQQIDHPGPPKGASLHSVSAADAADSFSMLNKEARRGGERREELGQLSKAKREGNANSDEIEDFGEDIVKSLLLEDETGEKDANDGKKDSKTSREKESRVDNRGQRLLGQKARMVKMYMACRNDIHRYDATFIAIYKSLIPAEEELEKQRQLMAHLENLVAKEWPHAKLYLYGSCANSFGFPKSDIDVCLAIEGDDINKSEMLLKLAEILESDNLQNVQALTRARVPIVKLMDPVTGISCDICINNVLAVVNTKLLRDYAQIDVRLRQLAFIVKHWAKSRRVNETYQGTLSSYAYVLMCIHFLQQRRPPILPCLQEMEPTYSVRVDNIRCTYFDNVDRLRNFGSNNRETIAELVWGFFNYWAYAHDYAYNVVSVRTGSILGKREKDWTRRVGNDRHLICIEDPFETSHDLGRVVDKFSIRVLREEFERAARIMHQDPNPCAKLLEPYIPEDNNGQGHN
Assay: pull-down; GST pull-down on glutathione sepharose; 10 pmol of each purified protein in 500 µl of 20 mM MOPS pH 7.2, 100 mM KCl, 15% glycerol, 0.1% Tween 20 with 100 ng/µl RNase A, 4 °C; SDS-PAGE, SYPRO Ruby; both purified

Substance: 6His-MBP-∆LSmDCP5 (Arabidopsis thaliana) (domain or fragment)
- binding: no binding (tested: 10 pmol of each protein in 500 µl)
